Taken from: PubChem BioAssay AID686943 (Drosophila RNAi Screening Center, 2013)
The deposit covers about 23,000 reagents; shown is an unselected part of those that have a named target and a result. 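Extra replicates exist only for a retested subset of genes; insulin dose and duration not given; both raised and lowered dpERK matter.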 A plus sign joins genes that one reagent is predicted to hit. Further read-outs or replicates are left out here. The record does not give: the amount of reagent, the time to read-out.

Purpose: 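Knockdowns that increase or decrease active ERK after insulin receptor stimulation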 (primary screen)
System: Drosophila S2R+ haemocyte-like cells expressing YFP-tagged ERK (Rolled)
Reagents: long dsRNA against Drosophila genes
Challenge: insulin stimulation versus unstimulated cells; dose and duration not given
Measured: 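Antibody staining for doubly phosphorylated ERK divided by ERK-YFP signal, as plate z-scores, in insulin-treated and untreated cells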
Reading the numbers: replicate 1, z-score of dpERK with insulin: higher = more active ERK per ERK-YFP after insulin

no.	gene	dsRNA	replicate 1, z-score of dpERK with insulin
1	GstD11 (Glutathione S transferase D11)	DRSC15251	-0.19
2	CG2841	DRSC17699	1.17
3	CG2841	DRSC18824	-0.48
4	CG2841	DRSC22106	0.03
5	CG10104	DRSC05964	0.52
6	CG7882	DRSC04899	0.64
7	Or47a (Odorant receptor 47a)	DRSC07491	0.18
8	CG32551	DRSC19259	-0.5
9	SerRS-m (Seryl-tRNA synthetase, mitochondrial)	DRSC14096	-0.26
10	CG7333	DRSC16229	-0.25
11	CG14195	DRSC19550	-0.81
12	qkr58E-2 (quaking related 58E-2)	DRSC04710	-0.21
13	HINT1 (histidine triad nucleotide binding protein 1)	DRSC00548	-0.69
14	l(3)72Dp (lethal (3) 72Dp)	DRSC10477	0.04
15	CG32846	DRSC08012	0.08
16	CG7601	DRSC14131	-0.91
17	CG13606	DRSC14609	1.69
18	CG33160	DRSC08197	0.5
19	insv (insensitive)	DRSC00579	-0.44
20	CG17159 + CG17162	DRSC20899	1.29
21	CG17159 + CG17162	DRSC20900	0.26
22	CG5292	DRSC15763	-0.23
23	CG13891	DRSC08361	0.3
24	Obp56h (Odorant-binding protein 56h)	DRSC06433	-1.32
25	Dek	DRSC07418	-1.38
26	CG18764	DRSC15391	0.49
27	Pgant9 (Polypeptide N-Acetylgalactosaminyltransferase 9)	DRSC05621	0.58
28	Pgant9 (Polypeptide N-Acetylgalactosaminyltransferase 9)	DRSC06584	0.14
29	Pgant9 (Polypeptide N-Acetylgalactosaminyltransferase 9)	DRSC07185	-0.12
30	Pgant9 (Polypeptide N-Acetylgalactosaminyltransferase 9)	DRSC07186	-0.92
31	Pgant9 (Polypeptide N-Acetylgalactosaminyltransferase 9)	DRSC07187	1.1
32	Pgant9 (Polypeptide N-Acetylgalactosaminyltransferase 9)	DRSC07189	-0.25
33	Pgant9 (Polypeptide N-Acetylgalactosaminyltransferase 9)	DRSC21807	1.09
34	Pgant9 (Polypeptide N-Acetylgalactosaminyltransferase 9)	DRSC22076	-0.19
35	CG18661	DRSC02690	0.09
36	GstE8 (Glutathione S transferase E8)	DRSC06678	0.21
37	CG42566	DRSC03949	-0.75
38	CG13026	DRSC09906	-0.47
39	fid (fire dancer)	DRSC14885	-0.44
40	fid (fire dancer)	DRSC16464	-2.11
41	mfas (midline fasciclin)	DRSC16997	-0.53
42	CG11584	DRSC19408	0.84
43	Duba (Deubiquitinating enzyme A)	DRSC10582	-1.64
44	FucTA (alpha1,3-fucosyltransferase A)	DRSC10733	0.33
45	CG3860	DRSC04425	0.58
46	CG31800	DRSC22525	0.51
47	mad2	DRSC10274	0.18
48	EndoU (Endoribonuclease U-specific)	DRSC15472	0.44
49	pncr003:2L (retired record)	DRSC22149	-0.17
50	Idh3g	DRSC15699	-0.08
51	Tsp39D (Tetraspanin 39D)	DRSC03099	-0.29
52	CG6168	DRSC10596	-0.1
53	gish (gilgamesh)	DRSC16154	-0.82
54	CG16711	DRSC10220	0.8
55	lncRNA:CR34046 (long non-coding RNA:CR34046)	DRSC14075	0.76
56	CG14853	DRSC14977	1.16
57	CG14853	DRSC21528	0.18
